Among the data in PMC10299398 are binding values, retold here.

The chains behind the UniProt entries cited, without tags or fusion partners. Where a name states a change or a piece, a line headed by the entry shows the natural chain unless it says otherwise.
UniProt S8FA55: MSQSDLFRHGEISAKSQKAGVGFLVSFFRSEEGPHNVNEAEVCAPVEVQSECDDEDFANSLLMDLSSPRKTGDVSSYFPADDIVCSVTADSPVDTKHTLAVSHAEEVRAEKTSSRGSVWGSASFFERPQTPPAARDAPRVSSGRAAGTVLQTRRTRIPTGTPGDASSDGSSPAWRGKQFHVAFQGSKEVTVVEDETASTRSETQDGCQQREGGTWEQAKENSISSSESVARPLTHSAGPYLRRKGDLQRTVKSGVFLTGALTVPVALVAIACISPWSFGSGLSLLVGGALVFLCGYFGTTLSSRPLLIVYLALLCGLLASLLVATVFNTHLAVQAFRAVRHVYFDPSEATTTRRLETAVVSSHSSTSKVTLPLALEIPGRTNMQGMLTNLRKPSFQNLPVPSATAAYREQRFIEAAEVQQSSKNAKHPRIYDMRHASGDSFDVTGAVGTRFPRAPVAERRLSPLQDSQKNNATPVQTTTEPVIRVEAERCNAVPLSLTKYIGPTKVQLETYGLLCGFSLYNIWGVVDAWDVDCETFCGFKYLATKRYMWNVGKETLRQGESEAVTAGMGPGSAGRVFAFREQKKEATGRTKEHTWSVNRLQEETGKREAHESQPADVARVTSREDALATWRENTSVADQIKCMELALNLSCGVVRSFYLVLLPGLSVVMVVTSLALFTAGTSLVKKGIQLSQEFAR
UniProt P10878: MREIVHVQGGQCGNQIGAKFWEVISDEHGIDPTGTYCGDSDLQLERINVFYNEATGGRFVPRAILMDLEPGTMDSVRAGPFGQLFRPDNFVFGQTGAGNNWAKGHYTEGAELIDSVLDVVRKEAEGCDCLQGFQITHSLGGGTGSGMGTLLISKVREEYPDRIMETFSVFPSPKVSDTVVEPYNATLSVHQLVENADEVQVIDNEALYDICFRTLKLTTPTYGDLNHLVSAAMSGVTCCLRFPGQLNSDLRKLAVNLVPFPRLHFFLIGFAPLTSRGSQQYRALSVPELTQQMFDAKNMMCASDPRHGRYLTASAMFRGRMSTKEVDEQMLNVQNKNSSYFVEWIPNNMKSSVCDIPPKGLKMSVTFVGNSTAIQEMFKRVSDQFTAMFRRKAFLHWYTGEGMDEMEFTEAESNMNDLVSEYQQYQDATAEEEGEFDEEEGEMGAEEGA
UniProt A0A125YQ79: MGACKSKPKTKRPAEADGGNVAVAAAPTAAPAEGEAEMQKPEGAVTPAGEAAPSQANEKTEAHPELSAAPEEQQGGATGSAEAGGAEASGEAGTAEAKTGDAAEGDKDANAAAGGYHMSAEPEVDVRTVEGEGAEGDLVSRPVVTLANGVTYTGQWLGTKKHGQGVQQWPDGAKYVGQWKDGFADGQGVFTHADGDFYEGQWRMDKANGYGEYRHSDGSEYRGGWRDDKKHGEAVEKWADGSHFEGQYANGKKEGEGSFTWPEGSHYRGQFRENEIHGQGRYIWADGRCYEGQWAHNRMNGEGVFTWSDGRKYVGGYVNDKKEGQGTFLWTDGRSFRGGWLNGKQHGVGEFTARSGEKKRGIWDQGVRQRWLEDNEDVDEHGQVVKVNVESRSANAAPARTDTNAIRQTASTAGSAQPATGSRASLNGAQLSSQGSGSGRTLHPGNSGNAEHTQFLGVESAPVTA

These are yes or no findings as the source states them, for the method shown. Binding seen in cells or lysates may run through a third protein. For part of these data: Binding calls can cover weak binding; strength is not graded here.

The target in one test is GST-MORN2 (T. gondii). The test can be described thus: pull-down; GST or GST-MORN2 from E. coli BL21 held on glutathione beads, incubated 4 h with lysate of transfected HEK293T cells; blot with anti-Flag; only the target purified.
A further test has as its target Flag-IMC3 (T. gondii) (UniProt S8FA55). The test can be described thus: co-IP; HEK293T cells co-transfected with two plasmids, lysed in RIPA buffer with protease inhibitors; mouse anti-Flag and protein A+G; blots with anti-GFP and anti-Flag.
The target in a further test is Flag-β-Tubulin (UniProt P10878). Described as above.

Consider “Flag-β-Tubulin (from UniProt P10878 1-449)”, for which, in the test with GST-MORN2 (T. gondii), the binding entry is “binds”.
As to GFP-MORN2 (from UniProt A0A125YQ79), the binding result is given as “no binding” with Flag-IMC3 (T. gondii) and “binds” with Flag-β-Tubulin.
